Results published in patent US20230235333.
pIC50: −log10 of the molar value. For some assays here: The comparison behind a weaker result is the experiment's own reference, which may not be listed here. For some assays here: Construct, isoform or probe ends are uncertain for at least one entry.

Chains of the proteins cited; added tags and fusions are not shown. Residues count along the entry.
UniProt Q9HBE4, 25-162: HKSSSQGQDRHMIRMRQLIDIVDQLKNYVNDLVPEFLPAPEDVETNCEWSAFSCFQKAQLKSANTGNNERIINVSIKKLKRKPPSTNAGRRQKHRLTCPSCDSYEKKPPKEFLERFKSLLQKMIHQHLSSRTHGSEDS

Tests used:
[1] = target: IL-21 (interleukin-21) (Homo sapiens) (UniProt Q9HBE4); experiment: activity in cells; conditions: purified recombinant protein
[2] = target: IL-21 (interleukin-21) (Homo sapiens) (UniProt Q9HBE4); experiment: SPR; conditions: purified recombinant protein, protein details: PeproTech, SEQ:44 is the 162 aa listing entry
[3] = target: IL-21 (interleukin-21) (Homo sapiens) (UniProt Q9HBE4); experiment: inhibition of the protein; conditions: 2'-F all pyrimidines, 2'-OH purines; purified recombinant protein; protein details: PeproTech, SEQ:44 is the 162 aa listing entry; dose not given here
[4] = 2'-F all pyrimidines, 10 nM aptamer, binding not measured, protein details: PeproTech, SEQ:44 is the 162 aa listing entry, variant of SEQ5 37mer
[5] = 2'-F all pyrimidines, +, cell inhibition 10.7% at 10 nM, variant of SEQ5 37mer
[6] = 2'-F pyrimidines, 10 nM aptamer, scored −, protein details: Peprotech, variant of SEQ5 37mer, counted as no effect

GGACCUUCAACACGCGACUACUCGUGAUUGCCGUCC [SEQ19]
functional effect of the aptamer [1, 4]: -9.8 % inhibition

GGACUUCAACACGCGACUACUCGUGAUUGCCCGUCC [SEQ9]
functional effect of the aptamer [1, 4]: -6.4 % inhibition

GGACCUUCAACACGCGGCUACUCGUGAUUGCCCGUCC [SEQ22(10)]
binding result ([2]; as SEQ22(2) with U6,C8,C23,G16 2'-OMe, + (range as defined for Table 2), cell inhibition 70.2% at 1 nM, 29.1% at 0.2 nM, variant of SEQ22(9)): binds more weakly

GGACUUCAACACGCGACUACUCGUGAUUGCCCUCC [SEQ8]
functional effect of the aptamer ([1]; 2'-F all pyrimidines, 10 nM aptamer, binding not measured, protein details: PeproTech, SEQ:44 is the 162 aa listing entry, variant of SEQ7 35mer): 8.3 % inhibition

GGACCUUCAACACGCGCUACUCGUGAUUGCCCGUCC [SEQ13]
functional effect of the aptamer [1, 4]: -14 % inhibition

GGGAAGCUCCGUCGAGCUUUCCUGCAUAAGCUGUAUUGCAGCCAGCAUUUAUUGUACGCCUGCGUAGCUCCU [SEQ50 negative control 72mer]
functional effect of the aptamer ([1]; negative control, protein details: PeproTech, SEQ:44 is the 162 aa listing entry, dose not given here, counted as no effect): -7.5 % inhibition

GGACCUUCAACACGCGACUCUCGUGAUUGCCCGUCC [SEQ16]
binding result [2, 5]: binds more weakly

GGACCUUCAACACGCGACUACCGUGAUUGCCCGUCC [SEQ18]
functional effect of the aptamer [1, 4]: -6.5 % inhibition

GGACCUUCAACACGCGACACUCGUGAUUGCCCGUCC [SEQ15]
binding result [2, 5]: binds more weakly

GGGAGAAGAACCUUCAACACGCGACUACUCGUGAUUGCCCGUUCUGAGCCCAGACGCUCUGCGCU [SEQ1 65mer]
functional effect of the aptamer [3]: active

GGACCUCAACACGCGACUACUCGUGAUUGCCCGUCC [SEQ10]
functional effect of the aptamer [1, 4]: -4.2 % inhibition

GGACCUUCAACCCGCGGCUACUCGGGAUUGCCCGUCC [SEQ37]
pIC50 ([1]; 2'-F C5,U6,U7,C8,C15,C18,U19,U22,C23,C33, 2'-OH G16,G17, 2'-OMe all others, 3' idT, IFN-gamma secretion from NK92 cells stimulated with human IL-21, protein details: PeproTech, SEQ:44 is the 162 aa listing entry, variant of SEQ28): 10.70

GGACCUUCAACACGCACUACUCGUGAUUGCCCGUCC [SEQ12]
functional effect of the aptamer [1, 4]: -7.6 % inhibition

GGACCUUCAACACGGACUACUCGUGAUUGCCCGUCC [SEQ11]
functional effect of the aptamer [1, 4]: -1 % inhibition

GGACCUUCAACACGCGGCUACUCGUGAUUGCCCGUCC [SEQ22(9)]
binding result ([2]; as SEQ22(2) with U6,C8,C23 2'-OMe instead of 2'-F, + (range as defined for Table 2), cell inhibition 84.4% at 1 nM, 50.0% at 0.2 nM, variant of SEQ22(2)): binds more weakly

GGACCUUCAACACGCGGCUACUCGUGAUUGCCCGUCC [SEQ22(11)]
functional effect of the aptamer ([1]; as SEQ22(10) plus 2'-OMe C5,U7, 3'-idT, 1 nM aptamer, protein details: Peprotech, variant of SEQ22(10), counted as no effect): -11.5 % inhibition

GGACCUUCAACACGCGAUACUCGUGAUUGCCCGUCC [SEQ14]
binding result ([2]; 2'-F all pyrimidines, +, cell inhibition 13.3% at 10 nM, variant of SEQ5 37mer): binds more weakly

GGACCUUCAACACGCGACUAUCGUGAUUGCCCGUCC [SEQ17]
functional effect of the aptamer [1, 6]: 7.4 % inhibition

GGACCUUCAACACGCGACUACUCGUGAUUGCCCGUCC [SEQ5(12)]
functional effect of the aptamer ([1]; 2'-OMe C18, 2'-F other pyrimidines, 3' idT, 1 nM aptamer, 9.5% at 0.2 nM, rated -, protein details: PeproTech, SEQ:44 is the 162 aa listing entry, variant of SEQ5 37mer): 20.1 % inhibition

GGCAACACGCGACUACUCGUGAUUGCC [SEQ6 27mer]
functional effect of the aptamer [1, 6]: 15.5 % inhibition
